Measurements from paper doi:10.1101/2025.02.23.639735 (bioRxiv, 2025).
No constants are given. Whether binding was seen depends on the method and setting. For part of these data: A result given as binding can be weak or reduced; the word gives no strength. For part of these data: Sequences can lack the tags named with a protein.

What was measured:
GST-UPF1-Hel (human) = target: T1, GST-UPF1-Hel (human) (UniProt Q92900); experiment: pull-down
T1 sequence: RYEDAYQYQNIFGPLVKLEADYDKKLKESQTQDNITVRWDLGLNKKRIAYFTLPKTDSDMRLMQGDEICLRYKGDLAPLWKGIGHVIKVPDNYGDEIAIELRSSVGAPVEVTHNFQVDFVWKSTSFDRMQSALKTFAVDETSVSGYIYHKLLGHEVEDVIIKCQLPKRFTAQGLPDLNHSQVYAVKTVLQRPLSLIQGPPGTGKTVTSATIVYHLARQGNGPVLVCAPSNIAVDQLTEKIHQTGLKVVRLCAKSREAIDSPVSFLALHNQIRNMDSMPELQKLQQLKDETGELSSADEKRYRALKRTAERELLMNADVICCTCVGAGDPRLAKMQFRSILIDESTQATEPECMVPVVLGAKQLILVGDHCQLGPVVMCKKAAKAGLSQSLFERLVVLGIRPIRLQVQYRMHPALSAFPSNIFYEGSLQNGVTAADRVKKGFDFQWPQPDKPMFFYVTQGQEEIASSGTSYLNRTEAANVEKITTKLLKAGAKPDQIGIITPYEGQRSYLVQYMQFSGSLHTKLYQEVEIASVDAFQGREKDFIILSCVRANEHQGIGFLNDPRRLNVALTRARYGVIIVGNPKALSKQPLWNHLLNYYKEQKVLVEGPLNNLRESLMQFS

3’hExofl = target: T2, 3’hExofl (human, UniProt Q8IV48 1-349); experiment: SEC
T2 sequence (looked up): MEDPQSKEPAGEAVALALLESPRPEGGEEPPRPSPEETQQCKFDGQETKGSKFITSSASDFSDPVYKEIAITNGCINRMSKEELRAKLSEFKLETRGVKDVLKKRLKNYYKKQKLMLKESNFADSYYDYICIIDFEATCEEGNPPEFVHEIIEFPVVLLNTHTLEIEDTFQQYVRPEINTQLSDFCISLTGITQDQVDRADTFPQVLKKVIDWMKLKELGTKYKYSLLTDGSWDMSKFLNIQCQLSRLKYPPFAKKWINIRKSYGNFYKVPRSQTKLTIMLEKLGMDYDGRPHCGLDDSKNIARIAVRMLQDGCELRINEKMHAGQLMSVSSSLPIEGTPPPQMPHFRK

Row | Substance | binding (GST-UPF1-Hel (human)) | binding (3’hExofl)
1 | SLBP with internal deletion of amino acids 21-57 (human) (domain or fragment) | binds | 
2 | SLBP with internal deletion of amino acids 31-60 (human) (domain or fragment) | binds | 
3 | UPF2ΔAL (human) (domain or fragment) |  | no binding
